The values below come from the supplement of paper PMC6331611.

SMILES strings stand for the structures. ± gives the standard deviation of the averaged measurements. What follows is the remainder of the data, with few or none of the lowest values.

In experiment [1] the test system is Salmonella enterica serovar Typhimurium SL1344. In words: normalized growth (OD600, IQM-normalized) in LPM (fraction of plate interquartile mean); higher = more bacterial growth (less inhibition). The following applies: LPM pH 5.8; 10 µM; 16 h.
For experiment [2] the test system is unchanged. In words: normalized intracellular growth (luminescence, IQM-normalized) in RAW264.7 macrophages (fraction of plate interquartile mean); higher = more bacterial growth (less inhibition). The note with it: 10 µM.

Take `CN1[C@@H]2CC[C@H]1C[C@@H](OC(=O)C(O)c1ccccc1)C2` (stereo partly specified): in experiment [1], the normalized growth was determined as 0.951 ± 0.11. Besides, the values for the normalized intracellular growth in experiment [2] (time point: T3 (3 h)) and in experiment [2] (time point: Tfinal (~6 h)) were 1.01 ± 0.077 and 1.1 ± 0.14, respectively.
In the same order, the values of `CCOc1cc(NC(C)=O)ccc1C(=O)OC` are 1.07 ± 0.021, 0.991 ± 0.061 and 1.01 ± 0.22.
